According to patent publication US11324219B2, “Amide compound or salt thereof, agricultural and horticultural microbicide comprising the compound and the salt, and method for using the agricultural and horticultural microbicide” (Nihon Nohyaku Co., Ltd., priority 2018, dated 2022):
Some entries share one result that the patent states for a list of compounds. Some ranges recur; such a range may be that of the whole group of compounds.

How the values were obtained:
[1] = system: barley powdery mildew (Blumeria graminis hordei); assay: Test for control efficacy on barley powdery mildew; format: in vivo; conditions: foliage of barley plants (Kanto No. 6), 7 days after inoculation
[2] = system: wheat powdery mildew fungus Blumeria graminis; assay: Test for control efficacy on wheat powdery mildew; format: in vivo; conditions: foliage of wheat plants (Nourin No. 61), 7 days after inoculation
[3] = concentration of 50 ppm or less

Row | SMILES | control efficacy (activity level) ([1]; concentration of 50 ppm) | control efficacy (activity level) ([2]; concentration of 10 ppm) | control efficacy (activity level) [2, 3] | control efficacy (activity level) ([1]; concentration of 10 ppm)
1 | CCS(=O)(=O)c1cc(C(F)(F)F)ccc1C(=O)Nc1sc(C(F)(F)F)cc1OC(C)C [Compound 1-10] | 1 (the control rate is 10 to 19%.) | 1 (the control rate is 10 to 19%.) | 1 (the control rate is 10 to 19%.) | 
2 | CCS(=O)(=O)c1cc(C(F)(F)F)ccc1C(=O)N(C(C)=O)c1sc(C(F)(F)F)cc1OC(C)C [Compound 1-12] | 1 (the control rate is 10 to 19%.) |  | 1 (the control rate is 10 to 19%.) | 
3 | CCS(=O)(=O)c1cc(C(F)(F)F)ccc1C(=O)Nc1cc(C(F)(F)F)sc1C(=O)OC [Compound 2-2] |  | 1 (the control rate is 10 to 19%.) | 1 (the control rate is 10 to 19%.) | 1 (the control rate is 10 to 19%.)
4 | CCS(=O)(=O)c1cc(C(F)(F)F)ccc1C(=O)Nc1cc(C(F)(F)C(F)(F)F)sc1Br [Compound 2-6, N-[2-bromo-5-(pentafluoroethyl)thiophen-3-yl]-2-(ethylsulfonyl)-4-(trifluoromethyl)benzamide] |  |  | 1 (the control rate is 10 to 19%.) | 
5 | CCS(=O)(=O)c1cc(C(F)(F)F)ccc1C(=O)N(C(C)=O)c1cc(C(F)(F)C(F)(F)F)sc1Br [Compound 2-8, N-acetyl-N-[2-bromo-5-(pentafluoroethyl)thiophen-3-yl]-2-(ethylsulfonyl)-4-(trifluoromethyl)benzamide] |  |  | 1 (the control rate is 10 to 19%.) | 
6 | CCS(=O)(=O)c1cc(C(F)(F)F)ccc1C(=O)Nc1cc(C(F)(F)C(F)(F)F)sc1C(=O)OC [Compound 2-10, N-[2-methoxycarbonyl-5-(pentafluoroethyl)thiophen-3-yl]-2-(ethylsulfonyl)-4-(trifluoromethyl)benzamide] | 1 (the control rate is 10 to 19%.) |  | 1 (the control rate is 10 to 19%.) | 
7 | CCS(=O)(=O)c1cc(C(F)(F)F)ccc1C(=O)N(C(C)=O)c1cc(C(F)(F)C(F)(F)F)sc1C(=O)OC [Compound 2-12, N-acetyl-N-[2-methoxycarbonyl-5-(pentafluoroethyl)thiophen-3-yl]-2-(ethylsulfonyl)-4-(trifluoromethyl)benzamide] | 1 (the control rate is 10 to 19%.) |  | 1 (the control rate is 10 to 19%.) | 
8 | CCc1sc(C(F)(F)C(F)(F)F)cc1N(C(C)=O)C(=O)c1ccc(C(F)(F)F)cc1S(=O)(=O)CC [Compound 2-20, N-acetyl-N-[2-ethyl-5-(pentafluoroethyl)thiophen-3-yl]-2-(ethylsulfonyl)-4-(trifluoromethyl)benzamide] |  | 1 (the control rate is 10 to 19%.) | 1 (the control rate is 10 to 19%.) | 
9 | CCS(=O)(=O)c1cc(C(F)(F)F)ccc1C(=O)Nc1cc(C(F)(C(F)(F)F)C(F)(F)F)sc1C(F)(C(F)(F)F)C(F)(F)F [Compound 2-22] |  |  | 1 (the control rate is 10 to 19%.) | 
10 | CCS(=O)(=O)c1cc(C(F)(F)F)ccc1C(=O)Nc1cc(C(F)(F)F)oc1C(=O)OC [Compound 2-26] |  |  | 1 (the control rate is 10 to 19%.) | 
11 | CCS(=O)(=O)c1cc(C(F)(F)F)ccc1C(=O)Nc1cc(C(F)(F)C(F)(F)F)oc1C(=O)OC [Compound 2-30, N-[2-methoxycarbonyl-5-(pentafluoroethyl)furan-3-yl]-2-(ethylsulfonyl)-4-(trifluoromethyl)benzamide] | 1 (the control rate is 10 to 19%.) |  | 1 (the control rate is 10 to 19%.) | 
12 | CCS(=O)(=O)c1cc(C(F)(F)F)ccc1C(=O)N(C(C)=O)c1cc(C(F)(F)C(F)(F)F)oc1C(=O)OC [Compound 2-32, N-acetyl-N-[2-methoxycarbonyl-5-(pentafluoroethyl)furan-3-yl]-2-(ethylsulfonyl)-4-(trifluoromethyl)benzamide] | 1 (the control rate is 10 to 19%.) |  | 1 (the control rate is 10 to 19%.) | 
13 | CCS(=O)(=O)c1cc(C(F)(F)F)ccc1C(=O)Nc1cc(C(F)(F)C(F)(F)F)oc1Br [Compound 2-38, N-[2-bromo-5-(pentafluoroethyl)furan-3-yl]-2-(ethylsulfonyl)-4-(trifluoromethyl)benzamide] |  | 1 (the control rate is 10 to 19%.) | 1 (the control rate is 10 to 19%.) | 
14 | CCS(=O)(=O)c1cc(C(F)(F)F)ccc1C(=O)N(C(C)=O)c1cc(C(F)(F)C(F)(F)F)oc1Br [Compound 2-40, N-acetyl-N-[2-bromo-5-(pentafluoroethyl)furan-3-yl]-2-(ethylsulfonyl)-4-(trifluoromethyl)benzamide] |  |  | 1 (the control rate is 10 to 19%.) | 
15 | CCSc1cc(C(F)(F)F)ccc1C(=O)Nc1cc(C(C)(C)C)oc1C(=O)OC [Compound 2-45, N-[2-methoxycarbonyl-5-(tert-butyl)furan-3-yl]-2-(ethylthio)-4-(trifluoromethyl)benzamide] |  | 1 (the control rate is 10 to 19%.) | 1 (the control rate is 10 to 19%.) | 1 (the control rate is 10 to 19%.)
16 | CCS(=O)(=O)c1cc(C(F)(F)F)ccc1C(=O)Nc1cc(C(C)(C)C)oc1C(=O)OC [Compound 2-46, N-[2-methoxycarbonyl-5-(tert-butyl)furan-3-yl]-2-(ethylsulfonyl)-4-(trifluoromethyl)benzamide] |  |  | 1 (the control rate is 10 to 19%.) | 
17 | CCS(=O)(=O)c1cc(C(F)(F)F)ccc1C(=O)N(C(C)=O)c1cc(C(C)(C)C)oc1C(=O)OC [Compound 2-48, N-acetyl-N-[2-methoxycarbonyl-5-(tert-butyl)furan-3-yl]-2-(ethylsulfonyl)-4-(trifluoromethyl)benzamide] |  |  | 1 (the control rate is 10 to 19%.) | 
18 | CCS(=O)(=O)c1cc(C(F)(F)F)ccc1C(=O)Nc1cc(C(F)(F)C(F)(F)F)n(C)c1C(=O)OC [Compound 2-50] |  |  | 1 (the control rate is 10 to 19%.) | 

Row | SMILES | control efficacy (activity level) ([1]; concentration of 50 ppm) | control efficacy (activity level) ([2]; concentration of 10 ppm) | control efficacy (activity level) [2, 3] | control efficacy (activity level) ([1]; concentration of 10 ppm)
19 | CCS(=O)(=O)c1cc(C(F)(F)F)ccc1C(=O)N(C(C)=O)c1cc(C(F)(F)C(F)(F)F)n(C)c1C(=O)OC [Compound 2-52] |  |  | 1 (the control rate is 10 to 19%.) | 
20 | CCS(=O)(=O)c1cc(C(F)(F)F)ccc1C(=O)Nc1ccn(CC(F)(F)F)c1C(=O)OC [Compound 2-54] |  |  | 1 (the control rate is 10 to 19%.) | 
21 | CCSc1cc(C(F)(F)F)ccc1C(=O)N(C(C)=O)c1sc(C(C(F)(F)F)C(F)(F)F)cc1C(=O)OC [Compound 3-3] |  |  | 1 (the control rate is 10 to 19%.) | 
22 | CCS(=O)(=O)c1cc(C(F)(F)F)ccc1C(=O)N(C(C)=O)c1sc(C(C(F)(F)F)C(F)(F)F)cc1C(=O)OC [Compound 3-4] | 1 (the control rate is 10 to 19%.) |  | 1 (the control rate is 10 to 19%.) | 
23 | CCSc1cc(C(F)(F)F)ccc1C(=O)Nc1cc(C(F)(F)C(F)(F)F)sc1C1CC1 [Compound 4-1] | 1 (the control rate is 10 to 19%.) |  |  | 
24 | CCS(=O)(=O)c1cc(C(F)(F)F)ccc1C(=O)Nc1cc(C(F)(F)C(F)(F)F)sc1C1CC1 [Compound 4-2] |  |  | 1 (the control rate is 10 to 19%.) | 
25 | CCS(=O)(=O)c1cc(C(F)(F)F)ccc1C(=O)N(C(C)=O)c1cc(C(F)(F)C(F)(F)F)sc1-c1ccsc1 [Compound 4-16] | 1 (the control rate is 10 to 19%.) |  | 1 (the control rate is 10 to 19%.) | 
26 | CCS(=O)(=O)c1cc(C(F)(F)F)ccc1C(=O)Nc1cc(CC(C)C)sc1C(=O)OC [Compound 4-38] | 1 (the control rate is 10 to 19%.) |  | 1 (the control rate is 10 to 19%.) | 1 (the control rate is 10 to 19%.)
27 | CCS(=O)(=O)c1cc(C(F)(F)F)ccc1C(=O)N(C(C)=O)c1cc(CC(C)C)sc1C(=O)OC [Compound 4-40] | 1 (the control rate is 10 to 19%.) |  | 1 (the control rate is 10 to 19%.) | 
28 | CCS(=O)(=O)c1cc(C(F)(F)F)ccc1C(=O)Nc1cc(C(C)(C)C)sc1C(=O)OC [Compound 4-50] | 1 (the control rate is 10 to 19%.) | 1 (the control rate is 10 to 19%.) | 1 (the control rate is 10 to 19%.) | 1 (the control rate is 10 to 19%.)
29 | CCC(=O)N(C(=O)c1ccc(C(F)(F)F)cc1S(=O)(=O)CC)c1cc(C(F)(F)C(F)(F)F)oc1C(=O)OC [Compound 4-62] | 1 (the control rate is 10 to 19%.) |  | 1 (the control rate is 10 to 19%.) | 
30 | CCS(=O)(=O)c1cc(C(F)(F)F)ccc1C(=O)N(C(=O)C(C)C)c1cc(C(F)(F)C(F)(F)F)oc1C(=O)OC [Compound 4-64] | 1 (the control rate is 10 to 19%.) |  | 1 (the control rate is 10 to 19%.) | 
31 | CCS(=O)(=O)c1cc(C(F)(F)F)ccc1C(=O)Nc1cc(-c2ccccc2)oc1C(=O)OC [Compound 4-76] |  |  | 1 (the control rate is 10 to 19%.) | 
32 | CCS(=O)(=O)c1cc(C(F)(F)F)ccc1C(=O)N(C(C)=O)c1cc(C(C)(C)C)oc1C(=O)OC(C)(C)C [Compound 4-94] |  |  | 1 (the control rate is 10 to 19%.) | 
33 | CCS(=O)(=O)c1cc(C(F)(F)F)ccc1C(=O)Nc1cc(C(F)(F)C(F)(F)F)oc1-c1ccsc1 [Compound 4-116] |  | 1 (the control rate is 10 to 19%.) |  | 
34 | CCS(=O)(=O)c1cc(C(F)(F)F)ccc1C(=O)Nc1cc(-c2ccccc2C(F)(F)F)sc1C(=O)OC [Compound 5-22] |  |  | 1 (the control rate is 10 to 19%.) | 
35 | COC(=O)c1oc(C(F)(F)C(F)(F)F)cc1N(C(=O)OC)C(=O)c1ccc(C(F)(F)F)cc1S(C)(=O)=O [Compound 5-66] |  | 1 (the control rate is 10 to 19%.) | 1 (the control rate is 10 to 19%.) | 
